PubChem BioAssay AID1259254, NCATS | 2017
This is an unselected part of about 59,000 deposited reagents. Over the whole deposit, about 1,550 (2.6%) were called active. 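G2 share is only a proxy for re-replication; each gene was hit by three separate siRNAs, and active genes were retested.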 Reagents against one gene are numbered here. Not all columns of the deposit are shown. No sequences are given here. The record does not give: the amount of reagent.

- Aim: 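Gene knock-downs that lead to re-replication, shown by excess G2 DNA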 (primary screen)
- System: human HCT116 colorectal cancer cells
- Reagents: single siRNA against human genes
- Duration: 3 days
- Measured: 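Nuclei stained with Hoechst and imaged; cell-cycle phase assigned by DNA content; G2 share scaled per plate, non-targeting siRNA 0%, GMNN siRNA 100%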
- Direction: G2 robust z-score: higher = more G2 cells, more excess DNA replication
- Active means: 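An siRNA counts as active if its G2 robust z-score lies at least 5 MADs above the screen median; here such calls match roughly 38% of GMNN control or more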

| gene | reagent | G2 robust z-score | call |
| --- | --- | --- | --- |
| WWTR1 | 1 | 0.354 | inactive |
| WWTR1 | 2 | 2.7 | inactive |
| WWTR1 | 3 | -0.254 | inactive |
| LOC644727 (retired record) | 1 | -0.52 | inactive |
| LOC644727 (retired record) | 2 | 3.19 | inactive |
| LOC644727 (retired record) | 3 | -0.384 | inactive |
| EBF2 | 1 | 0.248 | inactive |
| EBF2 | 2 | 1.5 | inactive |
| EBF2 | 3 | -1.39 | inactive |
| SLC27A2 | 1 | 3.24 | inactive |
| SLC27A2 | 2 | -0.796 | inactive |
| SLC27A2 | 3 | -0.656 | inactive |
| KIDINS220 | 1 | 0.862 | inactive |
| KIDINS220 | 2 | 2 | inactive |
| KIDINS220 | 3 | -0.274 | inactive |
| C1QTNF6 | 1 | 1.6 | inactive |
| C1QTNF6 | 2 | 9.08 | active |
| C1QTNF6 | 3 | -0.157 | inactive |
| MT1X | 1 | 1.11 | inactive |
| MT1X | 2 | 2.42 | inactive |
| MT1X | 3 | 2.14 | inactive |
| TERF1 | 1 | 4.79 | inactive |
| TERF1 | 2 | -0.0322 | inactive |
| TERF1 | 3 | 2.75 | inactive |
| RTRAF | 1 | -0.262 | inactive |
| RTRAF | 2 | -0.503 | inactive |
| RTRAF | 3 | -0.172 | inactive |
| CBL | 1 | -0.857 | inactive |
| CBL | 2 | 5.04 | active |
| CBL | 3 | -0.693 | inactive |
| DUXA | 1 | 1.41 | inactive |
| DUXA | 2 | 3.75 | inactive |
| DUXA | 3 | 2.09 | inactive |
| RAC3 | 1 | 3.87 | inactive |
| RAC3 | 2 | -0.236 | inactive |
| RAC3 | 3 | -0.284 | inactive |
| SURF6 | 1 | -0.685 | inactive |
| SURF6 | 2 | -0.459 | inactive |
| SURF6 | 3 | 1.75 | inactive |
| S100A1 | 1 | -1.09 | inactive |
| S100A1 | 2 | -0.261 | inactive |
| S100A1 | 3 | 0.664 | inactive |
| PPP4R3A | 1 | -1.46 | inactive |
| PPP4R3A | 2 | 1.33 | inactive |
| PPP4R3A | 3 | -0.257 | inactive |
| GTF2F1 | 1 | -0.456 | inactive |
| GTF2F1 | 2 | 0.906 | inactive |
| GTF2F1 | 3 | 0.558 | inactive |
| LINC00960 | 1 | 0.426 | inactive |
| LINC00960 | 2 | 2.8 | inactive |
| LINC00960 | 3 | -1.03 | inactive |
| IGF2BP2-AS1 | 1 | 4.68 | inactive |
| IGF2BP2-AS1 | 2 | -0.163 | inactive |
| IGF2BP2-AS1 | 3 | -0.644 | inactive |
| NCR3 | 1 | 0.144 | inactive |
| NCR3 | 2 | -0.699 | inactive |
| NCR3 | 3 | 1.14 | inactive |
| CDC27P6 | 1 | -0.0973 | inactive |
| CDC27P6 | 2 | 1.41 | inactive |
| CDC27P6 | 3 | 0.516 | inactive |
| TBCE | 1 | -0.0107 | inactive |
| TBCE | 2 | 1.46 | inactive |
| TBCE | 3 | 1.9 | inactive |
| KBTBD6 | 1 | -0.581 | inactive |
| KBTBD6 | 2 | -0.929 | inactive |
| KBTBD6 | 3 | 0.00129 | inactive |
| GAB4 | 1 | -0.652 | inactive |
| GAB4 | 2 | 1.08 | inactive |
| GAB4 | 3 | 0.0719 | inactive |

Reagents above marked active:
| gene | reagent | G2 robust z-score | call |
| --- | --- | --- | --- |
| C1QTNF6 | 2 | 9.08 | active |
| CBL | 2 | 5.04 | active |
